The values that follow come from the supplement of paper PMC10849652.

Sequences of proteins named here, by UniProt entry; tags and fusion partners are left off. A change or cut given only in a name is not applied to a line headed by its entry.
UniProt Q99700, whole entry, looked up: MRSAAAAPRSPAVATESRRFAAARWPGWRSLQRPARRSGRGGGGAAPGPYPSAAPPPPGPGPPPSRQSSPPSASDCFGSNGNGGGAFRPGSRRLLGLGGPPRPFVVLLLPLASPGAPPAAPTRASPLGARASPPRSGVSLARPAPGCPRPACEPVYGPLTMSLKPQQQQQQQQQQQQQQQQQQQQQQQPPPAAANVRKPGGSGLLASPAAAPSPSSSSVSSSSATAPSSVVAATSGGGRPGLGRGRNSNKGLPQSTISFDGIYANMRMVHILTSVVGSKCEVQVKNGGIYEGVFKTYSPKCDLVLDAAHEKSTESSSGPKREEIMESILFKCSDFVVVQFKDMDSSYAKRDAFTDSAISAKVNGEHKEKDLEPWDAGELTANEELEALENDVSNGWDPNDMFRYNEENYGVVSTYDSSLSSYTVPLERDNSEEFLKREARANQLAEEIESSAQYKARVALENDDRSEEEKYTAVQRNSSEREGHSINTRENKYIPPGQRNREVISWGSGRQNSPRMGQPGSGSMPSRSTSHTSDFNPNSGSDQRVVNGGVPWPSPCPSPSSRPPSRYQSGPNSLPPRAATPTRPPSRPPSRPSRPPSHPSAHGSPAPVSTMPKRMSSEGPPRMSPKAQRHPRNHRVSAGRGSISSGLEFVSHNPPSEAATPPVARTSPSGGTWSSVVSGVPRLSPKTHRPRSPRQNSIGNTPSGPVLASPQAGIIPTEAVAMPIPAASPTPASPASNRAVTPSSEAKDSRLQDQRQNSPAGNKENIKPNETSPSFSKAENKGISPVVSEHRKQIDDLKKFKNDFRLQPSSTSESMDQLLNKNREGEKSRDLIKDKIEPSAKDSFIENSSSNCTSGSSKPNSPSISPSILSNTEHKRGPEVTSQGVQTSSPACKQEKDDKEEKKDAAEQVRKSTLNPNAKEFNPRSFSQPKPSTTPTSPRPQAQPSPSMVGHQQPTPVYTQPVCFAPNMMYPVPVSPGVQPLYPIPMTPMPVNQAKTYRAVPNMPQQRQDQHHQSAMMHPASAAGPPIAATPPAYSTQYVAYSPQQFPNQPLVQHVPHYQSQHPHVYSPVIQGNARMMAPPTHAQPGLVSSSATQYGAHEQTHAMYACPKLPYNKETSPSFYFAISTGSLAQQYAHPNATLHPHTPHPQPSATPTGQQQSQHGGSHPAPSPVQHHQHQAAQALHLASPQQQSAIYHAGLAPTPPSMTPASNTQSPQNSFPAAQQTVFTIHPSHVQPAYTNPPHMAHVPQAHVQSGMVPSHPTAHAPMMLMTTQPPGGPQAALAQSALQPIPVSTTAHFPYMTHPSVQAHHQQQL
UniProt P56945: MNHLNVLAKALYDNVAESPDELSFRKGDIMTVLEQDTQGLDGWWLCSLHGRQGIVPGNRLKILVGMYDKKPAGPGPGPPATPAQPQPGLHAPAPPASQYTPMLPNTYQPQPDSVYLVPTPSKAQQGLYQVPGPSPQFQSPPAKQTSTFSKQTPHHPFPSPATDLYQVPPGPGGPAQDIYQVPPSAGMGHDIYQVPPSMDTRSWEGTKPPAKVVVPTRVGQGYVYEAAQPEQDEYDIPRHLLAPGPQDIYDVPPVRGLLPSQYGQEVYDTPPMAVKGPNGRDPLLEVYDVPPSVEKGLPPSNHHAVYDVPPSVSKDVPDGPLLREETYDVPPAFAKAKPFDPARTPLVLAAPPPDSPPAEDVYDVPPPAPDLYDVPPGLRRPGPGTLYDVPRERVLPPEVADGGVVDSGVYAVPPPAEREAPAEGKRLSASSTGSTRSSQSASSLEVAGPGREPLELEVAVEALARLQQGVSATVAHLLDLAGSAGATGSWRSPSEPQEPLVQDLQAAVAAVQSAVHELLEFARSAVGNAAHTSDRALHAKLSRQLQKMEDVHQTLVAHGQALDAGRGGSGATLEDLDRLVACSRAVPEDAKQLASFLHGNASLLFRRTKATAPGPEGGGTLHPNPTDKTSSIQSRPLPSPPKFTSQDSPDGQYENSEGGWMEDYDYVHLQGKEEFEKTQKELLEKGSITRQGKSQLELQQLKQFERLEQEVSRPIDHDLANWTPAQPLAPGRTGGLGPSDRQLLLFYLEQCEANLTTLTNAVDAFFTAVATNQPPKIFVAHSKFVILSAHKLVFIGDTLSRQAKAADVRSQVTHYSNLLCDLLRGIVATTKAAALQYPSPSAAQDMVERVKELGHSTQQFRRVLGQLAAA
UniProt O14867: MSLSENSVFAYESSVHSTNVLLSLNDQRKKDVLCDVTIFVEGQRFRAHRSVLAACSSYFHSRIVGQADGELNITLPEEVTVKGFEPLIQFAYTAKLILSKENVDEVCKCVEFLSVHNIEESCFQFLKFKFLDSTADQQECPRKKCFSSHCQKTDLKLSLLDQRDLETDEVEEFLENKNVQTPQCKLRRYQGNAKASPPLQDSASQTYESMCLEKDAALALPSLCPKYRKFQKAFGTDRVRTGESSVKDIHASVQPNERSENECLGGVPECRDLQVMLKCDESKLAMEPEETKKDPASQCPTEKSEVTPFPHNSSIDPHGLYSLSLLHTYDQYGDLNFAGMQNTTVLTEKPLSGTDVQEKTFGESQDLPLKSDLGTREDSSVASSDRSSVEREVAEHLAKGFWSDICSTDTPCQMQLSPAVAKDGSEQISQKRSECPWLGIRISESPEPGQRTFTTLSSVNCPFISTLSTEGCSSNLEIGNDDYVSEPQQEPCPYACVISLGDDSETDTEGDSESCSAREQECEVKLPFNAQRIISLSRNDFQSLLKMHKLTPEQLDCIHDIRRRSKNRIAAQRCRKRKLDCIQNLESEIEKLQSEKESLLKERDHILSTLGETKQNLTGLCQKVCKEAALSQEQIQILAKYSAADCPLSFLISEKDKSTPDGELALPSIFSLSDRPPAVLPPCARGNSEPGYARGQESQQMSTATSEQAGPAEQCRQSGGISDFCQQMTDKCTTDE
UniProt Q9P287, whole entry, looked up: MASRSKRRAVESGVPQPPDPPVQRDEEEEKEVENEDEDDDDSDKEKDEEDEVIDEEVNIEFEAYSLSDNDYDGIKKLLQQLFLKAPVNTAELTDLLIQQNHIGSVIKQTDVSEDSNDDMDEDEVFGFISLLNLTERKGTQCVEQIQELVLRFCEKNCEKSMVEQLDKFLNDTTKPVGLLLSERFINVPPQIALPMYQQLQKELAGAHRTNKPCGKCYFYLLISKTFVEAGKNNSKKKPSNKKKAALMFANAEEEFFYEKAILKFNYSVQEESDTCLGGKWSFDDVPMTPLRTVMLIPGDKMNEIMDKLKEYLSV
UniProt Q9NUP1: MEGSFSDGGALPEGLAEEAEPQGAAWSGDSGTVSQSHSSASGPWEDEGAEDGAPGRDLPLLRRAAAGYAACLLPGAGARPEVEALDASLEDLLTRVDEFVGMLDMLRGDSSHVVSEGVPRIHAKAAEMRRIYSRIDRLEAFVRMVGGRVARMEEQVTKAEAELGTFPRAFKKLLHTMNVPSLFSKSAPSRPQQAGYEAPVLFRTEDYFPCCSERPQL
UniProt Q8TDN6: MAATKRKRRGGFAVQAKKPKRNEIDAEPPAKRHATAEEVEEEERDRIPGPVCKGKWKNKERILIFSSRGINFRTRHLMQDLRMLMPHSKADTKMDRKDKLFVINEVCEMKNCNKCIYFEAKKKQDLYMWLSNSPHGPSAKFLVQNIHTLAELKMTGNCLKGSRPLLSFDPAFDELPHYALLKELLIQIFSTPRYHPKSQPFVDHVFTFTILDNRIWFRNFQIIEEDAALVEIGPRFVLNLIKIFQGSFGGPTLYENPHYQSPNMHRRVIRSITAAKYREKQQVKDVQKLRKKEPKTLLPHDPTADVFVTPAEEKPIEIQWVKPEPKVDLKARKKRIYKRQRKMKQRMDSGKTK
UniProt P15291: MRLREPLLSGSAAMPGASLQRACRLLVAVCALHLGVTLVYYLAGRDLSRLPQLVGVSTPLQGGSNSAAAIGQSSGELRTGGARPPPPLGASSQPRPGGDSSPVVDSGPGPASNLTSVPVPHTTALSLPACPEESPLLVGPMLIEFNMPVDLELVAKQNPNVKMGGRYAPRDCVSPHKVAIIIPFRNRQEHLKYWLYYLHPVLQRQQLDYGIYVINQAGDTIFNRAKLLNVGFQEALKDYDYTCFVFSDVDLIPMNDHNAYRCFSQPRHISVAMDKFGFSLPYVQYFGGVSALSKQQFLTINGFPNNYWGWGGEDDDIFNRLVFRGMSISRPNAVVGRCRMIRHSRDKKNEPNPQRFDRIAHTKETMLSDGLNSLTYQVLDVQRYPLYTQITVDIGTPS
UniProt Q13490, whole entry, looked up: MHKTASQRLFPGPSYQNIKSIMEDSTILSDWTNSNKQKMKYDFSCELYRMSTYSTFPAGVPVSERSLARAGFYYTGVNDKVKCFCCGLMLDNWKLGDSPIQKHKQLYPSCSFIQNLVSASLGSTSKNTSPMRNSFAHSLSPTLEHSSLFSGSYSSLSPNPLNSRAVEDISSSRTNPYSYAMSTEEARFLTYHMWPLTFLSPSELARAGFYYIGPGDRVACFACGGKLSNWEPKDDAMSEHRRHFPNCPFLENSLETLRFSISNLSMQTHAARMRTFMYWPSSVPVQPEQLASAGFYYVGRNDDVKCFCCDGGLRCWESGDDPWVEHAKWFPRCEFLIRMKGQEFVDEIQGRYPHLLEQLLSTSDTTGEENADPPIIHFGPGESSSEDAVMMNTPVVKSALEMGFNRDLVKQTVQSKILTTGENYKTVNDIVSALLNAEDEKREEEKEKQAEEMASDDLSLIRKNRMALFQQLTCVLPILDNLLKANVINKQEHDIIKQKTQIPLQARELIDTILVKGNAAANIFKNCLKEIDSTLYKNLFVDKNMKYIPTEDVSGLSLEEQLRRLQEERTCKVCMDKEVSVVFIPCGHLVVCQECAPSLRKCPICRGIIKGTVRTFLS
UniProt Q96GX2: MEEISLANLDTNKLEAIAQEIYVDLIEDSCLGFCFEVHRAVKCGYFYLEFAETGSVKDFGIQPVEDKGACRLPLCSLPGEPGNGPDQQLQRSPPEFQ
UniProt Q9Y276: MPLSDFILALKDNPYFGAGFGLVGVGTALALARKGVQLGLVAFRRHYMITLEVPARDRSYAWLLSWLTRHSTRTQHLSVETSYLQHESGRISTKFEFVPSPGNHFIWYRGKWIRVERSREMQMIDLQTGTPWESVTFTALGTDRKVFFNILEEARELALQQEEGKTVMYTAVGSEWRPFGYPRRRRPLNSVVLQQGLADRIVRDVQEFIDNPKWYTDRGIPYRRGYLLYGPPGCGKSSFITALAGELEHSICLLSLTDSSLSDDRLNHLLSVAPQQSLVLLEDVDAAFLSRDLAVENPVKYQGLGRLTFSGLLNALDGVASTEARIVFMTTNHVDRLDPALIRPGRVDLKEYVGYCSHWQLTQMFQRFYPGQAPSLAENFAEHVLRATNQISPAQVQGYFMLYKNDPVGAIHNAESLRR
UniProt P46736, whole entry, looked up: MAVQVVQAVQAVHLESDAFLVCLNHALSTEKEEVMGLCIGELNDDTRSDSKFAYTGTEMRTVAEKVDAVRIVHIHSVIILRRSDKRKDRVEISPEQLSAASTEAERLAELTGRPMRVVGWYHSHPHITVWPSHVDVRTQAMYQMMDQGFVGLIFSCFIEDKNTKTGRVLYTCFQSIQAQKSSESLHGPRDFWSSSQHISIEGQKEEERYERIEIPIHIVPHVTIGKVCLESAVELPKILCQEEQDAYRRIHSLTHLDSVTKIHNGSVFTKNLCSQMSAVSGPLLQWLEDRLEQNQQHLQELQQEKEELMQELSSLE
UniProt Q9NY97: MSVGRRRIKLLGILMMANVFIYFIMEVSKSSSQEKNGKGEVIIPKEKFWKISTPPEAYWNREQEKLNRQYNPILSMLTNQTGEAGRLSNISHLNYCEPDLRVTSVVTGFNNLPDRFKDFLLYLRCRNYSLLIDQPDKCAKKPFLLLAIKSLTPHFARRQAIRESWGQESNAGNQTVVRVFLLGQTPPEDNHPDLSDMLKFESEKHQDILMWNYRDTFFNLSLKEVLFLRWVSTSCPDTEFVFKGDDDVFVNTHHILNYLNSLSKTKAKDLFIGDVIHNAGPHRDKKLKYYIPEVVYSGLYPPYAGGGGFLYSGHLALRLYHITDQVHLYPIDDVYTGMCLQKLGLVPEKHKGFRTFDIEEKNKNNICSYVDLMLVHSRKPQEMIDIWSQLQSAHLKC
UniProt O60512: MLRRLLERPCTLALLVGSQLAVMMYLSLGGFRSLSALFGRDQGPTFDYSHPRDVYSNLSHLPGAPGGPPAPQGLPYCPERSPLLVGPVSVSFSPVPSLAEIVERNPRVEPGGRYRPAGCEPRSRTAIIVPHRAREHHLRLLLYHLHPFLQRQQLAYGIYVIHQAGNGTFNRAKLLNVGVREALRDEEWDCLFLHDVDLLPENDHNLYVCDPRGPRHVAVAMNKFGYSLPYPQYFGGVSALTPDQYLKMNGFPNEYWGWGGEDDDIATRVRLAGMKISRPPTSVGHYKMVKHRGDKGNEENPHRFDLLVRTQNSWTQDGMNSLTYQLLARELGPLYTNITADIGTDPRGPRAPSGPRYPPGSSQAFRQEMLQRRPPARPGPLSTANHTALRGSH
UniProt Q6QNY1: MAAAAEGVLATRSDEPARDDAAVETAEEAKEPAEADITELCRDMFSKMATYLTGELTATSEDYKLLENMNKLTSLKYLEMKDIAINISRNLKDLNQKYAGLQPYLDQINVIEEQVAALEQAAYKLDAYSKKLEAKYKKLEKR

The list shows a part of the results. Residues, ends and D or L forms follow the SMILES beside them. *: point of attachment. Cbz = O=C(OCc1ccccc1)*

Compound in the first assay: CC(C)C1=C2N=C(C=C(N2N=C1)NCC3=CC=CC=C3)NCCCCCCN
Kind of assay: log2 fold change, soluble protein after heating vs DMSO (PISA); higher = thermal stabilisation; K562 cells, 10 uM, 30 min; active = over 0.2 and 3.5 SD of the protein, either way, in both replicates (recomputed). A digest of the protocol:
(§1)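 K562 cells at 2×10^6 cells/mL were given 10 μM compound for 30 min. Aliquots then went through 3 min of heating across 48°C-58°C, were pooled, and were extracted in PBS with 0.5% NP-40 at 4°C, and the supernatant after 21,000xg for 90 min was quantified by TMTpro 16plex LC-MS/MS with channel sums equalised. Thermal stability relative to control samples, from duplicates, is given as log2 fold change.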
Take ATXN2 (UniProt Q99700): the log2 fold change was inactive: -0.013.

As to BCAR1 isoform 6 (UniProt P56945), the log2 fold change was inactive: -0.031.

Turning to BPGM (UniProt P07738), the log2 fold change is inactive: 0.038.

Regarding BRAP (UniProt Q7Z569), the log2 fold change is inactive: -0.11.

Take BAX isoform 2 (UniProt Q07812): the log2 fold change is inactive: 0.058.

For the target BPHL (UniProt Q86WA6), the log2 fold change was inactive: 0.123.

Turning to BCL2L2 isoform 2 (UniProt Q92843), the log2 fold change was inactive: 0.162.

BACH1 (UniProt O14867): the log2 fold change was inactive: 0.069.

Take BAIAP2L1 (UniProt Q9UHR4): the log2 fold change was inactive: 0.038.

Turning to BCCIP (UniProt Q9P287), the log2 fold change is inactive: 0.035.

For BLOC1S4 (UniProt Q9NUP1), the log2 fold change is inactive: 0.024.

BICD2 isoform 2 (UniProt Q8TD16): the log2 fold change is inactive: -0.028.

Turning to BAG6 isoform 3 (UniProt P46379), the log2 fold change is inactive: -0.097.

Regarding BRIX1 (UniProt Q8TDN6), the log2 fold change is inactive: 0.137.

In the case of AUP1 (UniProt Q9Y679), the log2 fold change is active: -0.482.

For B4GALT1 (UniProt P15291), the log2 fold change is active: -0.294.

Take BIRC2 (UniProt Q13490): the log2 fold change is inactive: -0.014.

On to ATXN7L3B (UniProt Q96GX2), for which the log2 fold change is inactive: 0.058.

In the case of ATXN2L (UniProt Q8WWM7), the log2 fold change was inactive: -0.012.

As for BORCS5 (UniProt Q969J3), the log2 fold change is inactive: -0.036.

With B3GAT3 (UniProt O94766), the log2 fold change is inactive: 0.041.

Regarding BNIP2 (UniProt J3KN59), the log2 fold change was inactive: -0.265.

Turning to B3GNTL1 (UniProt Q67FW5), the log2 fold change is inactive: 0.027.

As to BCAS2 (UniProt O75934), the log2 fold change was inactive: 0.094.

Turning to BLOC1S6 (UniProt Q9UL45), the log2 fold change was inactive: -0.041.

On to BLVRA (UniProt P53004), for which the log2 fold change was inactive: -0.031.

As for BOP1 (UniProt Q14137), the log2 fold change was inactive: -0.068.

Regarding BCS1L (UniProt Q9Y276), the log2 fold change is inactive: 0.026.

For the target BRCC3 (UniProt P46736), the log2 fold change was inactive: 0.072.

BCCIP isoform 2 (UniProt Q9P287): the log2 fold change was inactive: 0.008.

With BOD1L1 (UniProt Q8NFC6), the log2 fold change was inactive: 0.024.

With B3GNT2 (UniProt Q9NY97), the log2 fold change was inactive: -0.07.

Turning to B4GALT3 (UniProt O60512), the log2 fold change is inactive: -0.078.

With AVL9 (UniProt Q8NBF6), the log2 fold change is inactive: -0.146.

As to BAP1 (UniProt Q92560), the log2 fold change is inactive: -0.217.

Take BLOC1S2 (UniProt Q6QNY1): the log2 fold change is inactive: 0.09.

BCAP29 isoform 2 (UniProt Q9UHQ4): the log2 fold change was inactive: -0.106.

For the target BRAT1 (UniProt Q6PJG6), the log2 fold change is inactive: -0.07.

As for BORCS6 (UniProt Q96GS4), the log2 fold change is inactive: -0.119.

Regarding AURKA (UniProt O14965), the log2 fold change was inactive: -0.128.

Compound in a further assay: CC(C)C[C@@H](C=O)NC(=O)[C@H](CC(C)C)NC(=O)[C@H](CC(C)C)NC(=O)OCc1ccccc1
The assay is described as above. Summed up:
as §1
With ATXN2 (UniProt Q99700), the log2 fold change is inactive: -0.001.

Turning to BCAR1 isoform 6 (UniProt P56945), the log2 fold change is inactive: 0.123.

Take BPGM (UniProt P07738): the log2 fold change was inactive: 0.

Regarding BRAP (UniProt Q7Z569), the log2 fold change was inactive: -0.093.

As to BAX isoform 2 (UniProt Q07812), the log2 fold change is inactive: 0.001.

In the case of BPHL (UniProt Q86WA6), the log2 fold change is inactive: 0.071.

For the target BCL2L2 isoform 2 (UniProt Q92843), the log2 fold change was inactive: -0.006.

Consider BACH1 (UniProt O14867), for which the log2 fold change was inactive: 0.058.

As to BAIAP2L1 (UniProt Q9UHR4), the log2 fold change was inactive: 0.033.

On to BCCIP (UniProt Q9P287), for which the log2 fold change was inactive: 0.015.

BLOC1S4 (UniProt Q9NUP1): the log2 fold change is inactive: 0.1.

On to BICD2 isoform 2 (UniProt Q8TD16), for which the log2 fold change is inactive: -0.004.

On to BAG6 isoform 3 (UniProt P46379), for which the log2 fold change is inactive: 0.127.

Regarding BRIX1 (UniProt Q8TDN6), the log2 fold change is inactive: 0.041.

Regarding AUP1 (UniProt Q9Y679), the log2 fold change was inactive: -0.033.

For B4GALT1 (UniProt P15291), the log2 fold change was inactive: 0.017.

Take BIRC2 (UniProt Q13490): the log2 fold change was inactive: -0.009.

ATXN7L3B (UniProt Q96GX2): the log2 fold change is inactive: 0.

On to ATXN2L (UniProt Q8WWM7), for which the log2 fold change was inactive: 0.009.

With BORCS5 (UniProt Q969J3), the log2 fold change was inactive: -0.013.

With B3GAT3 (UniProt O94766), the log2 fold change was inactive: 0.002.

Consider BNIP2 (UniProt J3KN59), for which the log2 fold change is inactive: 0.055.

Turning to B3GNTL1 (UniProt Q67FW5), the log2 fold change is inactive: 0.205.

Regarding BCAS2 (UniProt O75934), the log2 fold change was inactive: -0.023.

Take BLOC1S6 (UniProt Q9UL45): the log2 fold change was inactive: 0.027.

For the target BLVRA (UniProt P53004), the log2 fold change is inactive: -0.012.

For the target BOP1 (UniProt Q14137), the log2 fold change was inactive: 0.031.

Consider BCS1L (UniProt Q9Y276), for which the log2 fold change is inactive: 0.001.

In the case of BRCC3 (UniProt P46736), the log2 fold change is inactive: -0.009.

With BCCIP isoform 2 (UniProt Q9P287), the log2 fold change was inactive: -0.012.

As for BOD1L1 (UniProt Q8NFC6), the log2 fold change is inactive: 0.044.

Take B3GNT2 (UniProt Q9NY97): the log2 fold change is inactive: 0.014.

In the case of B4GALT3 (UniProt O60512), the log2 fold change was inactive: 0.125.

For AVL9 (UniProt Q8NBF6), the log2 fold change is inactive: -0.049.

Turning to BAP1 (UniProt Q92560), the log2 fold change is inactive: 0.048.

In the case of BLOC1S2 (UniProt Q6QNY1), the log2 fold change was inactive: 0.042.

BCAP29 isoform 2 (UniProt Q9UHQ4): the log2 fold change was inactive: 0.007.

Regarding BRAT1 (UniProt Q6PJG6), the log2 fold change is inactive: 0.069.

Turning to BORCS6 (UniProt Q96GS4), the log2 fold change was inactive: -0.019.

As for AURKA (UniProt O14965), the log2 fold change was inactive: 0.16.
